Laboratory results published in article PMC12618078.
These are yes or no findings as the source states them, for the method shown. Binding seen in cells or lysates may run through a third protein. Some entries that bind do so weakly or less than the wild type.

The chains behind the UniProt entries cited, without tags or fusion partners. Where a name states a change or a piece, a line headed by the entry shows the natural chain unless it says otherwise.
UniProt Q6ZW49: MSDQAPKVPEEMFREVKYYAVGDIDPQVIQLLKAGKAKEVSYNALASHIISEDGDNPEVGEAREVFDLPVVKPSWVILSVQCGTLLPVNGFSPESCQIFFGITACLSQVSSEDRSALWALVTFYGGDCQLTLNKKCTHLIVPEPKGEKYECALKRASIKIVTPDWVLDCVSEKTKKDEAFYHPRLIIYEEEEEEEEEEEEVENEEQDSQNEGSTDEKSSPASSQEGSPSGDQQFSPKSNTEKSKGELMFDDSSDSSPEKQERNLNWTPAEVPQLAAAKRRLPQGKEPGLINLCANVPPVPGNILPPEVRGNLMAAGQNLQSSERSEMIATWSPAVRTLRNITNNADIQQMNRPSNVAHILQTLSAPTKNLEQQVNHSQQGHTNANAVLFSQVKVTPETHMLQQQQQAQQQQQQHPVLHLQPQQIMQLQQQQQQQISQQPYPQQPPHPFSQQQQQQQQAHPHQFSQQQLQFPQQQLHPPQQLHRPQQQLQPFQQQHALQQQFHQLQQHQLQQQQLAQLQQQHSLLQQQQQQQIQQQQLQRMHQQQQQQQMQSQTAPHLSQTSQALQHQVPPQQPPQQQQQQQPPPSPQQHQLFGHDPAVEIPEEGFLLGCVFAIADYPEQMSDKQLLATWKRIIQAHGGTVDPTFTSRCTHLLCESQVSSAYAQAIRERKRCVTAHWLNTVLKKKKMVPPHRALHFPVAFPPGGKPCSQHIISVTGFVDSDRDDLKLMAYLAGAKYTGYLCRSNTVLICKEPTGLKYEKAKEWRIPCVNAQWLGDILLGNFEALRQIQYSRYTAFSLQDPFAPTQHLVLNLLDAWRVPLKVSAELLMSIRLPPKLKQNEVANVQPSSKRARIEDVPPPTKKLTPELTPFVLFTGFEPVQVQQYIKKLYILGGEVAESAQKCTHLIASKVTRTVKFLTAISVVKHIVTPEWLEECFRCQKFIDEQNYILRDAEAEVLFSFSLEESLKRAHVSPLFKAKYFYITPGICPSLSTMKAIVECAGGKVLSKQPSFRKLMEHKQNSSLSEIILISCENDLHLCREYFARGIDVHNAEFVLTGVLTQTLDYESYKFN
UniProt Q5UIP0: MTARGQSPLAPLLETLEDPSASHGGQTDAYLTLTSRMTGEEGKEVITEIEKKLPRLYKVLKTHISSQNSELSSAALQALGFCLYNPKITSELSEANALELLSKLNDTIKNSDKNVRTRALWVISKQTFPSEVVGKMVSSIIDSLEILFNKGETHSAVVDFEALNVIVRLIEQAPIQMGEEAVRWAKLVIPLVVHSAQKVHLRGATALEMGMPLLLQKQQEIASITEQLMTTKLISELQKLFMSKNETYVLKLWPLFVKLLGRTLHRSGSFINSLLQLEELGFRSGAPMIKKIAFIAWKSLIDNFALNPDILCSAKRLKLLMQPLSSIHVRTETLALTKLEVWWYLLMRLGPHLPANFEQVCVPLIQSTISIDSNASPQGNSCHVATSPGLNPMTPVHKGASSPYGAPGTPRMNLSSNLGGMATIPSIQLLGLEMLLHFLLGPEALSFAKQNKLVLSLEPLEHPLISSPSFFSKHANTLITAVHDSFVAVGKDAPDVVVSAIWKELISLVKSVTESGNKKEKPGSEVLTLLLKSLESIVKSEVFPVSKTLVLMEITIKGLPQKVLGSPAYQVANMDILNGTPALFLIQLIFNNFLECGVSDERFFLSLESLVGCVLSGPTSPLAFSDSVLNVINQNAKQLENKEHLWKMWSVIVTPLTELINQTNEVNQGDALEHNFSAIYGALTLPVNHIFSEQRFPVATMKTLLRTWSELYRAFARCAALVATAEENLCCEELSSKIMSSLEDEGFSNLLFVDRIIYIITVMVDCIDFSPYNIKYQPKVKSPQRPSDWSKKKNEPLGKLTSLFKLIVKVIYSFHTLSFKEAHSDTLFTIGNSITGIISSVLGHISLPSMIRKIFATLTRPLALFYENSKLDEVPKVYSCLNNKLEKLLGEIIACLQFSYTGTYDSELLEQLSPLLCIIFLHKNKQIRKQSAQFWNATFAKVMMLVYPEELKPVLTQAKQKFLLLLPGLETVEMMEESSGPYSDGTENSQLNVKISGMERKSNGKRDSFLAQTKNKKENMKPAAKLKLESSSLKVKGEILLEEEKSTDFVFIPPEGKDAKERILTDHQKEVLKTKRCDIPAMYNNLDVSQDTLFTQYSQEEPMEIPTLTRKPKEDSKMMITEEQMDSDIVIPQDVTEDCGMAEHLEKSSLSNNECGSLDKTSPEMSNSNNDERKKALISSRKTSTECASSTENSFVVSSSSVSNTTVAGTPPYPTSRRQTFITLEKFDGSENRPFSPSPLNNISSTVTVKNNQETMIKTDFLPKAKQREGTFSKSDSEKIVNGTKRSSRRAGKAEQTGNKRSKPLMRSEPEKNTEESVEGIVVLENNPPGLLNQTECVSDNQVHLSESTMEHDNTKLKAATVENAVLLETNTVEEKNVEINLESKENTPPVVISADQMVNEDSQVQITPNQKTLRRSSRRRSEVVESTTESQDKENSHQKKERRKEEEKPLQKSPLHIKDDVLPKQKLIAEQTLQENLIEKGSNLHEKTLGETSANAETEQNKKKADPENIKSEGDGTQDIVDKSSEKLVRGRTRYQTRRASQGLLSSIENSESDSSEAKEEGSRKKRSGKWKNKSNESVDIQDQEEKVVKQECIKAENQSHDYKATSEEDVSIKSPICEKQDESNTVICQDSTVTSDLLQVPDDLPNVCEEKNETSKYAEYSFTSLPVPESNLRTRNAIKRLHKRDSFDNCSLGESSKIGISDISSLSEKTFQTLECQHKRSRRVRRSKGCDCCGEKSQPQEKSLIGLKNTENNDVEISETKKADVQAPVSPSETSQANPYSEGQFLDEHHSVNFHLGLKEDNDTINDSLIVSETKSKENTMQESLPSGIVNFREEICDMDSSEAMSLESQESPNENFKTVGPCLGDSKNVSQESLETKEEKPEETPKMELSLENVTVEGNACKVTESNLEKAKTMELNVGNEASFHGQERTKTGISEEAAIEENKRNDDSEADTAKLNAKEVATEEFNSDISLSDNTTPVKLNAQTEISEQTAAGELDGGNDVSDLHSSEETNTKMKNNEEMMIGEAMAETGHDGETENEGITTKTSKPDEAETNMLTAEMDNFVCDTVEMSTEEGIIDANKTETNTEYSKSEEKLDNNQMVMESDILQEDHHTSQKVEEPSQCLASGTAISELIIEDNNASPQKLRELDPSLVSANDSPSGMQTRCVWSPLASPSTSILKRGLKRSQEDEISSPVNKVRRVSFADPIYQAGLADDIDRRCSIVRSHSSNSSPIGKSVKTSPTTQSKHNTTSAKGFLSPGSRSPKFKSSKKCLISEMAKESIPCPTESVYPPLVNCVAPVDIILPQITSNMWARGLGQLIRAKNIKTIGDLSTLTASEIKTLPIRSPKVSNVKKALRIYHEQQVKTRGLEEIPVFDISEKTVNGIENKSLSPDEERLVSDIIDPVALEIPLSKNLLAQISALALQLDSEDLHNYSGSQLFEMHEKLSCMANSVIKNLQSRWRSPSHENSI
UniProt P49841: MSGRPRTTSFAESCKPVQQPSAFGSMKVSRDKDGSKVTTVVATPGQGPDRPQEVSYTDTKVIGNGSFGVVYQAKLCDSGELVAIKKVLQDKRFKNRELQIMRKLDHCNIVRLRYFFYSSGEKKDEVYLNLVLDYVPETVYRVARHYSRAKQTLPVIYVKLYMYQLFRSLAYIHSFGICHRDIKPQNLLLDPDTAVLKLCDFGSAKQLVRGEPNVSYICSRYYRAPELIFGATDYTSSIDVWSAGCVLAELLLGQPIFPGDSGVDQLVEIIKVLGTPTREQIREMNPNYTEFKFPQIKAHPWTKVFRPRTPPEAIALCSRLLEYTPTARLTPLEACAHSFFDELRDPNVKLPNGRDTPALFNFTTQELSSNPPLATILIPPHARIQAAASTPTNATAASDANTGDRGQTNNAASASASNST
UniProt Q12888: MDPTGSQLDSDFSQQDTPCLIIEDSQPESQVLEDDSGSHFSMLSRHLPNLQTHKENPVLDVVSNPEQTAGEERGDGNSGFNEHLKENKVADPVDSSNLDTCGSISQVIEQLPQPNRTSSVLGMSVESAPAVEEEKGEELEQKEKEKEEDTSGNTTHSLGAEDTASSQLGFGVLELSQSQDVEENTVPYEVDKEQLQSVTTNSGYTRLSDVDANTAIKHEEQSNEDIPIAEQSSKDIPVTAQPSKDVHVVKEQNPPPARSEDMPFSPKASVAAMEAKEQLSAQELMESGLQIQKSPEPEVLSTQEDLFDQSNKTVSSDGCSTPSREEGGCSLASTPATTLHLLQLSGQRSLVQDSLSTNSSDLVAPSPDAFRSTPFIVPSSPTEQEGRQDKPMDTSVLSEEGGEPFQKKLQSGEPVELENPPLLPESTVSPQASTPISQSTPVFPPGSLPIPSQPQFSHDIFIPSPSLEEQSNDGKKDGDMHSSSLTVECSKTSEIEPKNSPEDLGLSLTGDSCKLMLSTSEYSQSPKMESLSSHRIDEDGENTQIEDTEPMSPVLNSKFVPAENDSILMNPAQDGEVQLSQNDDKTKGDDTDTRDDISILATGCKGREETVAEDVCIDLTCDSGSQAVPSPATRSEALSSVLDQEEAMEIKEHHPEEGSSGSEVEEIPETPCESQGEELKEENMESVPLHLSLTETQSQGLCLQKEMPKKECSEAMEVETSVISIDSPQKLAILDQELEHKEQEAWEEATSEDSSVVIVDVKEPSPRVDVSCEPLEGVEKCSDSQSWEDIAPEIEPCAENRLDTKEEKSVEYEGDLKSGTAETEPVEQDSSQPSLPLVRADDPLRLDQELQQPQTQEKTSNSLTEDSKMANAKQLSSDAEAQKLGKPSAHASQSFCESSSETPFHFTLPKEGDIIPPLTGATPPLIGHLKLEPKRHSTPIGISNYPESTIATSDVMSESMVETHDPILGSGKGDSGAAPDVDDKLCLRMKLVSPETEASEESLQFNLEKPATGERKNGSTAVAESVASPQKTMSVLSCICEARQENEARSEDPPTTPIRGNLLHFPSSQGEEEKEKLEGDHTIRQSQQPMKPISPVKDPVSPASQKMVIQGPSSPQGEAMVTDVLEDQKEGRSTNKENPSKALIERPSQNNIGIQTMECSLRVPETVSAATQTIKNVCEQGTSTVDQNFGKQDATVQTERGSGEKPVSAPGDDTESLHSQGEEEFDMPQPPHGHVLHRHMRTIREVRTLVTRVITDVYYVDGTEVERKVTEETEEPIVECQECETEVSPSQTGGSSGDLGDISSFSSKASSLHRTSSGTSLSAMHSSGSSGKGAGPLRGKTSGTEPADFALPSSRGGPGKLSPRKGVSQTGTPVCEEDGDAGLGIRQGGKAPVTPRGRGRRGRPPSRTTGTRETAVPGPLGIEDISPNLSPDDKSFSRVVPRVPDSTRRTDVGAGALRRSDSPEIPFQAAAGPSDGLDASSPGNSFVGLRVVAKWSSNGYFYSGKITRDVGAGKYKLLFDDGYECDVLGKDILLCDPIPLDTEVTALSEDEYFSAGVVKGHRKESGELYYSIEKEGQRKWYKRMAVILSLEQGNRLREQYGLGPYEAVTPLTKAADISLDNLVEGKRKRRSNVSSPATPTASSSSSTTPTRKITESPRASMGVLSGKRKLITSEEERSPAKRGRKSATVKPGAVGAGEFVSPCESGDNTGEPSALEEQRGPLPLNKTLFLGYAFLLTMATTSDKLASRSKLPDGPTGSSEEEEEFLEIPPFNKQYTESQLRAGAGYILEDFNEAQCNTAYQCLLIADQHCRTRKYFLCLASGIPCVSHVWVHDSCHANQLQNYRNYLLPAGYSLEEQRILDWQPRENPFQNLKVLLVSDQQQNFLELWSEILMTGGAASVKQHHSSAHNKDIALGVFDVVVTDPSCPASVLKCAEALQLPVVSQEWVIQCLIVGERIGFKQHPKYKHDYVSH

Columns and labels:
[1] = target: PTIP (UniProt Q6ZW49); test: co-IP; WT U2OS cells before and 1 hour after IR (6 Gy); 53BP1 and pT334-53BP1 bands blotted in the precipitates of PTIP and RIF1-FLAG; NETN buffer with nuclease, protein A/G magnetic beads, overnight at 4°C
[2] = target: RIF1-FLAG (UniProt Q5UIP0); test: as above
[3] = target: PTIP (UniProt Q6ZW49); test: co-IP; reciprocal co-IP in 53BP1-/- U2OS cells reconstituted with WT or T334A 53BP1, before and 1 hour after IR (6 Gy); NETN buffer with nuclease, protein A/G magnetic beads, overnight at 4°C
[4] = target: RIF1-FLAG (UniProt Q5UIP0); test: as above
[5] = target: Glycogen synthase kinase 3 β (GSK3B), endogenous (UniProt P49841); test: co-IP; reciprocal co-IP of endogenous 53BP1 and GSK3B, with or without IR (6 Gy); NETN buffer with nuclease, protein A/G magnetic beads, overnight at 4°C; cell line not stated

For “53BP1, endogenous in WT U2OS cells (total 53BP1) (from UniProt Q12888 1-1972)”, which binding [1] is on record?
The binding was “binds”.

And the binding [2]?
Its binding is “binds”.

How did the binding [3] turn out when “T334A mutant 53BP1 reconstituted in 53BP1-/- U2OS cells (from UniProt Q12888 1-1972)” was run?
Its binding is “binds”.

And the binding [4]?
The binding was “binds”.

For “WT 53BP1 reconstituted in 53BP1-/- U2OS cells (from UniProt Q12888 1-1972)”, which binding [3] is on record?
The binding was “binds”.

And the binding [4]?
Its binding is “binds”.

For “p53 binding protein 1 (53BP1), endogenous, in the co-IP of Figure 1B (from UniProt Q12888 1-1972)”, which binding [5] is on record?
Its binding is “binds”.
